For at least one compound, name, drawing or mass did not settle the structure.
System: SDF-1
Assay: RT-PCR for SDF-1 in mouse tissues after intraperitoneal celastrol injection
Format: in vivo, mice

CC1=C(O)C(=O)C=C2C1=CC=C1[C@@]2(C)CC[C@@]2(C)[C@@H]3C[C@](C)(C(=O)O)CC[C@]3(C)CC[C@]12C [celastrol] was tested, and the SDF-1 expression (liver and spine, three and four days after injection (FIG. 4C)) was “large increase in SDF-1 expression”, the SDF-1 expression (muscle, spine, lung, posterior cup and retina, three days after injection (FIG. 4B)) was “increases in SDF-1 expression are observed” and the SDF-1 expression (skin and lung, within twenty-four hours after intraperitoneal injection, vs placebo (FIG. 4A)) was “strongly induced”. For the same molecule, the SDF-1 expression (variety of other tissues, at twenty-four hours (FIG. 4A)) was “Increases in SDF-1 are also seen” and the “SDF-1 expression, measured as percent SDF-1/TBP” value (variety of tissues, relative to control mouse injected with placebo, days 1-4 (FIGS. 4A-4C)) was “increase in expression of the SDF-1”.
